Data source: PubChem BioAssay AID1508597 (Cure First, 2020)
Screen: 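Genes whose silencing sensitises or protects ovarian cancer cells against rucaparib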 (primary screen). Cell system: human ovarian carcinoma lines grown from tumours: OCI-P5x (papillary serous) and OCI-C5x (clear cell). Knock-down reagent: siRNA pool against human genes, 1.25 pmol siRNA per well. Timing: 72 h or 96 h, depending on the cell culture. Conditions: rucaparib 20 µM (about IC30) or vehicle, present until read-out. Measurement: 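Luminescent ATP-based viability assay read 72 or 96 h after transfection, depending on culture, given as normalised percent viability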. Scale: viability, normalised: higher = more viable cells remaining. Hit rule: 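a well counts as a hit if its normalised viability is under 80 percent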. Calls: active = viability under 80%; inactive = viability 80% or more.
This is an unselected part of about 2,100 reagents. 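Calls flag viability under 80% in either arm, not effects specific to rucaparib; the reference for percent is not stated.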 Unmarked entries are inactive. A reagent listed more than once was tested more than once; the source does not tell the runs apart. No sequences are given here. The record does not give: the 100% reference.

What did the screen give for DRD2 (dopamine receptor D2), rucaparib or vehicle Rucaparib, cell line OCI-C5x (clear cell), technical replicate 1?
viability, normalised (%): 40.4 (active)

For DRD2 (dopamine receptor D2), rucaparib or vehicle Rucaparib, cell line OCI-C5x (clear cell), technical replicate 2, what was measured?
viability, normalised (%): 32.5 (active)

For DRD2 (dopamine receptor D2), rucaparib or vehicle Rucaparib, cell line OCI-C5x (clear cell), technical replicate 3, how do the results read?
viability, normalised (%): 38.3 (active)

Which result is listed for DRD2 (dopamine receptor D2), rucaparib or vehicle Rucaparib, cell line OCI-P5x (serous), technical replicate 1?
viability, normalised (%): 38.8 (active)

For DRD2 (dopamine receptor D2), rucaparib or vehicle Rucaparib, cell line OCI-P5x (serous), technical replicate 2, how do the results read?
viability, normalised (%): 40.9 (active)

Which result is listed for DRD2 (dopamine receptor D2), rucaparib or vehicle Rucaparib, cell line OCI-P5x (serous), technical replicate 3?
viability, normalised (%): 51.7 (active)

For DRD2 (dopamine receptor D2), rucaparib or vehicle Vehicle, cell line OCI-C5x (clear cell), technical replicate 1, how do the results read?
viability, normalised (%): 62.7 (active)

Which result is listed for DRD2 (dopamine receptor D2), rucaparib or vehicle Vehicle, cell line OCI-C5x (clear cell), technical replicate 2?
viability, normalised (%): 60.4 (active)

How did the screen score DRD2 (dopamine receptor D2), rucaparib or vehicle Vehicle, cell line OCI-C5x (clear cell), technical replicate 3?
viability, normalised (%): 43.7 (active)

What did the screen give for DRD2 (dopamine receptor D2), rucaparib or vehicle Vehicle, cell line OCI-P5x (serous), technical replicate 1?
viability, normalised (%): 55.3 (active)

With DRD2 (dopamine receptor D2), rucaparib or vehicle Vehicle, cell line OCI-P5x (serous), technical replicate 2, what was measured?
viability, normalised (%): 60.1 (active)

What did the screen give for DRD2 (dopamine receptor D2), rucaparib or vehicle Vehicle, cell line OCI-P5x (serous), technical replicate 3?
viability, normalised (%): 55.6 (active)

What is on record for SMARCA4, rucaparib or vehicle Rucaparib, cell line OCI-C5x (clear cell), technical replicate 1?
viability, normalised (%): 66.4 (active)

With SMARCA4, rucaparib or vehicle Rucaparib, cell line OCI-C5x (clear cell), technical replicate 1, how do the results read?
viability, normalised (%): 30.2 (active)

Which result is listed for SMARCA4, rucaparib or vehicle Rucaparib, cell line OCI-C5x (clear cell), technical replicate 2?
viability, normalised (%): 66.5 (active)

What is on record for SMARCA4, rucaparib or vehicle Rucaparib, cell line OCI-C5x (clear cell), technical replicate 2?
viability, normalised (%): 36.5 (active)

Which result is listed for SMARCA4, rucaparib or vehicle Rucaparib, cell line OCI-C5x (clear cell), technical replicate 3?
viability, normalised (%): 28.7 (active)

What is on record for SMARCA4, rucaparib or vehicle Rucaparib, cell line OCI-C5x (clear cell), technical replicate 3?
viability, normalised (%): 56.5 (active)

With SMARCA4, rucaparib or vehicle Rucaparib, cell line OCI-P5x (serous), technical replicate 1, what was measured?
viability, normalised (%): 71.9 (active)

How did the screen score SMARCA4, rucaparib or vehicle Rucaparib, cell line OCI-P5x (serous), technical replicate 1?
viability, normalised (%): 48.5 (active)

With SMARCA4, rucaparib or vehicle Rucaparib, cell line OCI-P5x (serous), technical replicate 2, how do the results read?
viability, normalised (%): 49.9 (active)

For SMARCA4, rucaparib or vehicle Rucaparib, cell line OCI-P5x (serous), technical replicate 2, what does the deposit list?
viability, normalised (%): 59.9 (active)

Which result is listed for SMARCA4, rucaparib or vehicle Rucaparib, cell line OCI-P5x (serous), technical replicate 3?
viability, normalised (%): 39.6 (active)

What did the screen give for SMARCA4, rucaparib or vehicle Rucaparib, cell line OCI-P5x (serous), technical replicate 3?
viability, normalised (%): 68.7 (active)

For SMARCA4, rucaparib or vehicle Vehicle, cell line OCI-C5x (clear cell), technical replicate 1, how do the results read?
viability, normalised (%): 32.4 (active)

How did the screen score SMARCA4, rucaparib or vehicle Vehicle, cell line OCI-C5x (clear cell), technical replicate 1?
viability, normalised (%): 73.8 (active)

For SMARCA4, rucaparib or vehicle Vehicle, cell line OCI-C5x (clear cell), technical replicate 2, how do the results read?
viability, normalised (%): 57.5 (active)

What did the screen give for SMARCA4, rucaparib or vehicle Vehicle, cell line OCI-C5x (clear cell), technical replicate 2?
viability, normalised (%): 27.9 (active)

Which result is listed for SMARCA4, rucaparib or vehicle Vehicle, cell line OCI-C5x (clear cell), technical replicate 3?
viability, normalised (%): 26.1 (active)

For SMARCA4, rucaparib or vehicle Vehicle, cell line OCI-C5x (clear cell), technical replicate 3, how do the results read?
viability, normalised (%): 48.4 (active)

Which result is listed for SMARCA4, rucaparib or vehicle Vehicle, cell line OCI-P5x (serous), technical replicate 1?
viability, normalised (%): 59.7 (active)

Which result is listed for SMARCA4, rucaparib or vehicle Vehicle, cell line OCI-P5x (serous), technical replicate 1?
viability, normalised (%): 42.4 (active)

With SMARCA4, rucaparib or vehicle Vehicle, cell line OCI-P5x (serous), technical replicate 2, what was measured?
viability, normalised (%): 49.9 (active)

For SMARCA4, rucaparib or vehicle Vehicle, cell line OCI-P5x (serous), technical replicate 2, what was measured?
viability, normalised (%): 63.8 (active)

How did the screen score SMARCA4, rucaparib or vehicle Vehicle, cell line OCI-P5x (serous), technical replicate 3?
viability, normalised (%): 61.5 (active)

For SMARCA4, rucaparib or vehicle Vehicle, cell line OCI-P5x (serous), technical replicate 3, what was measured?
viability, normalised (%): 46.9 (active)

Copied from the listing, 4 entries:
SMARCA4, rucaparib or vehicle Vehicle, cell line OCI-P5x (serous), technical replicate 2 | viability, normalised (%) = 49.9 (active)
SMARCA4, rucaparib or vehicle Vehicle, cell line OCI-P5x (serous), technical replicate 2 | viability, normalised (%) = 63.8 (active)
SMARCA4, rucaparib or vehicle Vehicle, cell line OCI-P5x (serous), technical replicate 3 | viability, normalised (%) = 61.5 (active)
SMARCA4, rucaparib or vehicle Vehicle, cell line OCI-P5x (serous), technical replicate 3 | viability, normalised (%) = 46.9 (active)
